Source: article PMC11655846
These are yes or no findings as the source states them, for the method shown. Binding seen in cells or lysates may run through a third protein. Some entries that bind do so weakly or less than the wild type.

Molecular target: T1, ubiquitin-specific peptidase 39 (USP39) (human (endogenous in NCI-H1975)) (UniProt Q53GS9)
T1 sequence: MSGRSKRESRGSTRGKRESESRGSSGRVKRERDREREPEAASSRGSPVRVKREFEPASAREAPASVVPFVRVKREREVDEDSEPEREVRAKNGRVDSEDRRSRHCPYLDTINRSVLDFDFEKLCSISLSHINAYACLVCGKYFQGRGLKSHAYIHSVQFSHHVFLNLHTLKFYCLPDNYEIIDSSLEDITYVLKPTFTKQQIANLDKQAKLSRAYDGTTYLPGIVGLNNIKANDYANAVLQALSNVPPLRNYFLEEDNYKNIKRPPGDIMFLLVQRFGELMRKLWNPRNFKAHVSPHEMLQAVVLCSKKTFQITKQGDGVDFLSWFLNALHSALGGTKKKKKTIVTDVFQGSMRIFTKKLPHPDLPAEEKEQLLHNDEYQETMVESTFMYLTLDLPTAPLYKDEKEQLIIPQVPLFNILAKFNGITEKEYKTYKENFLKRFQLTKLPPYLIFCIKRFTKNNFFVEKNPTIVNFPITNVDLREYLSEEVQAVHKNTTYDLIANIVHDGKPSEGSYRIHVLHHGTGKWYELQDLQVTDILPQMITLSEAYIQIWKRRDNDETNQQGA
Experiment: co-IP; same immunoconjugates (USP39 antibody on Dynabeads Protein A, NCI-H1975 lysate in 1% digitonin, 150 mM NaCl, 25 mM Tris, pH 7.5); 10% analysed by immunoblotting

B1: dihydrolipoamide S-acetyltransferase (DLAT) (enzyme, UniProt P10515 87-647)
chain: SLPPHQKVPLPSLSPTMQAGTIARWEKKEGDKINEGDLIAEVETDKATVGFESLEECYMAKILVAEGTRDVPIGAIICITVGKPEDIEAFKNYTLDSSAAPTPQAAPAPTPAATASPPTPSAQAPGSSYPPHMQVLLPALSPTMTMGTVQRWEKKVGEKLSEGDLLAEIETDKATIGFEVQEEGYLAKILVPEGTRDVPLGTPLCIIVEKEADISAFADYRPTEVTDLKPQVPPPTPPPVAAVPPTPQPLAPTPSAPCPATPAGPKGRVFVSPLAKKLAVEKGIDLTQVKGTGPDGRITKKDIDSFVPSKVAPAPAAVVPPTGPGMAPVPTGVFTDIPISNIRRVIAQRLMQSKQTIPHYYLSIDVNMGEVLLVRKELNKILEGRSKISVNDFIIKASALACLKVPEANSSWMDTVIRQNHVVDVSVAVSTPAGLITPIVFNAHIKGVETIANDVVSLATKAREGKLQPHEFQGGTFTISNLGMFGIKNFSAIINPPQACILAIGASEDKLVPADNEKGFDVASMMSVTLSCDHRVVDGAVGAQWLAEFRKYLEKPITMLL
With B1 as the binder, how does the binding read?
Its binding is “binds”.
